Results are given in words; binding and its absence hold for the method and conditions named. In cells and extracts the contact can be indirect. Some entries that bind do so weakly or less than the wild type.

Sequences of proteins named here, by UniProt entry; tags and fusion partners are left off.
UniProt P51863: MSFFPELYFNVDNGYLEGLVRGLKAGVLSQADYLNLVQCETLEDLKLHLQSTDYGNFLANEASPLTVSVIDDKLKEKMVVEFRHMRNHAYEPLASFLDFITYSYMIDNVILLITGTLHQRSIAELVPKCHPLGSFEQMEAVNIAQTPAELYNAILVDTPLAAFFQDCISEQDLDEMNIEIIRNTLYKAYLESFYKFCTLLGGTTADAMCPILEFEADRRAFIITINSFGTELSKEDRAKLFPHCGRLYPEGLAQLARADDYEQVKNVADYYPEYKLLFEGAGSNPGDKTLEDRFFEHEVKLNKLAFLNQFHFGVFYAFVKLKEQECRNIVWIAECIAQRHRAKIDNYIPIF

For the assay, the target named is Atp6v0d1 (mouse (endogenous in MEFs)) (UniProt P51863). In words: co-IP; whole-cell lysates of untreated MEFs; immunoprecipitation with anti-Atp6v0d1 at 4 °C overnight, Protein A/G magnetic beads 1 h, immunoblotting with anti-DDRGK1.

B1: DDRGK domain-containing protein 1 (protein, UniProt Q80WW9 1-315)
chain: MVGPWVYLVAAVLLIGLILFLTRSRGRAAAADGEPLHNEEERAGAGQVGRSLPQESEEQRTGSRPRRRRDLGSRLQAQRRAQRVAWEDGDENVGQTVIPAQEEEGIEKPAEVHPTGKIGAKKLRKLEEKQARKAQREAEEAEREERKRLESQREAEWKKEEERLRLKEEQKEEEERKAQEEQARREHEEYLKLKEAFVVEEEGVSETMTEEQSHSFLTEFINYIKKSKVVLLEDLAFQMGLRTQDAINRIQDLLTEGTLTGVIDDRGKFIYITPEELAAVANFIRQRGRVSITELAQASNSLISWGQDLPAQASA
On to B1, for which the binding result was “binds”.

For the origin of these results see article PMC8058061.
